Experimental data as given in PubChem BioAssay AID651706 (NMMLSC, 2012).
The list shows a part of the results. Shown are side measurements of this screen, not its main read-out; they come without a call. Compounds called inactive in the main read-out are mostly missing here.

Test: inducers of myeloid progenitor differentiation, confirmation, cell-based, GFP/Mac1 flow cytometry, cherry pick 01 (AID 651706);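 note: share of live cells carrying both lysozyme GFP and MAC1 staining after four days; test concentration not given here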
Conditions: ER-HoxA9 myeloid progenitors, measured here: percent double positive cells, stronger effect = higher value

| Structure (SMILES) | double positive cells |
| --- | --- |
| Cc1cc(NC(=O)COC(=O)c2c(C)nn(Cc3ccccc3)c2Cl)no1 | 12.5% |
| COC(=O)C1=C(c2cc3ccccc3s2)C[C@@H]2CC[C@H]1N2C(=O)NC1CCCCC1 | 5.8% |
